Results on 22 compounds are retold here after the supplement of paper PMC4635364.

Structures can show the parent of a compound that is named as a salt. The list shows a part of the results. Single values are uncertain here, since repeats match poorly.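 Cells: ReNCell VM human fetal ventral-midbrain neural progenitors, differentiated mitogen-free. Blinded raters compared doublecortin-stained (early neurons) or tyrosine hydroxylase-stained (dopaminergic neurons) images with untreated wells, where 0 means no change. After repeats and both raters were averaged, compounds scoring 2 or above became hits for retesting.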

The subject of test [1] is ReNCell VM. Briefly: neuronal differentiation score (DCX+ cell fraction vs untreated, manual image score) (score (-3 to 3)); higher = more neuronal differentiation. Particulars: 2 uM, 2 weeks.
The subject of test [2] is ReNCell VM. The experiment in a line: dopaminergic neuron differentiation score (TH+ cell fraction vs untreated, manual image score) (score (0 to 3)); higher = more TH+ dopaminergic neuron differentiation. Particulars: 2 uM, 4 weeks, BDNF 10 ng/ml + GDNF 10 ng/ml.

As for `CCCNC(C)(C)COC(=O)c1ccccc1`, the neuronal differentiation score in the test on ReNCell VM [1] (library: Spectrum) was inactive: 0. The “dopaminergic neuron differentiation score” value in the test on ReNCell VM [2] (library: Spectrum) is inactive: 0.

For the compound `O=C(O)C1=CCCN(CCON=C(c2ccccc2)c2ccccc2)C1`, in the test on ReNCell VM [1] (library: Tocriscreen), the neuronal differentiation score was inactive: 0. Moreover, the “dopaminergic neuron differentiation score” value in the test on ReNCell VM [2] (library: Tocriscreen) is inactive: 0.

With `CN(C)CCCC1(c2ccc(F)cc2)OCc2cc(C#N)ccc21` (centres undefined), the neuronal differentiation score in the test with ReNCell VM [1] (library: Spectrum) is inactive: -1. For the same compound, the “dopaminergic neuron differentiation score” value in the test on ReNCell VM [2] (library: Spectrum) was inactive: 0.

On to `Nc1cc(C(Cl)=C(Cl)Cl)c(S(N)(=O)=O)cc1S(N)(=O)=O`, for which the neuronal differentiation score in the test on ReNCell VM [1] (library: Spectrum) was inactive: -1. Besides, the “dopaminergic neuron differentiation score” value in the test on ReNCell VM [2] (library: Spectrum) was inactive: 0.

Regarding `Cn1cc(C2=C(c3cn(CCCSC(=N)N)c4ccccc34)C(=O)NC2=O)c2ccccc21` [Ro 31-8220 mesylate], the neuronal differentiation score in the test on ReNCell VM [1] (library: Tocriscreen) is inactive: 0. Also, the “dopaminergic neuron differentiation score” value with ReNCell VM [2] (library: Tocriscreen) was inactive: 0.

`COc1cc(C(=O)OCCCN2CCCN(CCCOC(=O)c3cc(OC)c(OC)c(OC)c3)CC2)cc(OC)c1OC`: the neuronal differentiation score in the test with ReNCell VM [1] (library: Spectrum) was inactive: -1. Further, the “dopaminergic neuron differentiation score” value with ReNCell VM [2] (library: Spectrum) was inactive: 0.

Consider `CCCCCCCCCC[Si](C)(C)CCC(=O)NC(Cc1ccc(C)cc1)c1ccccc1` (centres undefined) [Sandoz 58-035], for which the neuronal differentiation score with ReNCell VM [1] (library: LOPAC) is inactive: 0. In the test on ReNCell VM [2] (library: LOPAC), the “dopaminergic neuron differentiation score” value is inactive: 0.

Take `CC1(C)CCC2=C(O1)c1ccccc1C(=O)C2=O` [beta-Lapachone]: the neuronal differentiation score in the test with ReNCell VM [1] (library: LOPAC) was inactive: 0. In addition, the “dopaminergic neuron differentiation score” value with ReNCell VM [2] (library: LOPAC) is inactive: 0.

Take `O=C(O)CS`: in the test on ReNCell VM [1] (library: Spectrum), the neuronal differentiation score was inactive: 0. The “dopaminergic neuron differentiation score” value in the test on ReNCell VM [2] (library: Spectrum) was inactive: 0.

Regarding `O=C(O)[C@]1(O)C[C@@H](O)[C@@H](O)[C@H](O)C1` [Quinic acid], in the test with ReNCell VM [1] (library: Phytochemical), the neuronal differentiation score was inactive: 0. Also, the “dopaminergic neuron differentiation score” value in the test on ReNCell VM [2] (library: Phytochemical) is inactive: 0.

As to `CCCCCN(C)CCC(O)(P(=O)(O)O)P(=O)(O)O`, the neuronal differentiation score in the test with ReNCell VM [1] (library: Spectrum) was inactive: 0. For the same compound, the “dopaminergic neuron differentiation score” value with ReNCell VM [2] (library: Spectrum) was inactive: 0.

As to `CO[C@@]1(NC(=O)CSCC#N)C(=O)N2C(C(=O)O)=C(CSc3nnnn3C)CS[C@@H]21` [Cefmetazole sodium salt], the neuronal differentiation score in the test on ReNCell VM [1] (library: Prestwick) is inactive: 0. For the same compound, the “dopaminergic neuron differentiation score” value in the test with ReNCell VM [2] (library: Prestwick) is inactive: 0.

Turning to `O=C(CCc1ccc(O)cc1)c1c(O)cc(O)cc1O`, the neuronal differentiation score in the test with ReNCell VM [1] (library: Spectrum) is inactive: 0. For the same compound, the “dopaminergic neuron differentiation score” value with ReNCell VM [2] (library: Spectrum) was inactive: 0.

Regarding `CC1(C2CCCC2)Cc2cc(OCC(=O)O)c(Cl)c(Cl)c2C1=O` (centres undefined), the neuronal differentiation score with ReNCell VM [1] (library: LOPAC) is inactive: 0. In addition, the “dopaminergic neuron differentiation score” value in the test on ReNCell VM [2] (library: LOPAC) was inactive: 0.

On to `O=C(O)c1cc(-c2ccc(F)cc2F)ccc1O` [Diflunisal], for which the neuronal differentiation score with ReNCell VM [1] (library: Prestwick) was inactive: 0. In addition, the “dopaminergic neuron differentiation score” value in the test with ReNCell VM [2] (library: Prestwick) was inactive: 0.

Turning to `CC1CC(OC(=O)C(O)c2ccccc2)CC(C)(C)N1C` (centres undefined), the neuronal differentiation score in the test on ReNCell VM [1] (library: Spectrum) is inactive: 0. The “dopaminergic neuron differentiation score” value with ReNCell VM [2] (library: Spectrum) was inactive: 0.

For the compound `CC(=O)Nc1c(I)c(C(=O)N[C@H]2C(O)O[C@H](CO)[C@@H](O)[C@@H]2O)c(I)c(N(C)C(C)=O)c1I` (some centres undefined) [Metrizamide], the neuronal differentiation score in the test with ReNCell VM [1] (library: Prestwick) was inactive: 0. The “dopaminergic neuron differentiation score” value in the test on ReNCell VM [2] (library: Prestwick) was inactive: 0.

`C[C@]12CCC(=O)C=C1CC[C@@H]1[C@@H]2[C@@H](O)C[C@@]2(C)[C@H]1CC[C@]2(O)C(=O)CO`: the neuronal differentiation score with ReNCell VM [1] (library: Spectrum) was inactive: 0. For the same compound, the “dopaminergic neuron differentiation score” value in the test on ReNCell VM [2] (library: Spectrum) was inactive: 0.

Take `C/C=C1\[C@H]2C=C(C)C[C@]1(N)c1ccc(=O)[nH]c1C2`: in the test with ReNCell VM [1] (library: Spectrum), the neuronal differentiation score is inactive: 0. The “dopaminergic neuron differentiation score” value in the test on ReNCell VM [2] (library: Spectrum) is inactive: 0.

With `CCS(=O)(=O)N(C)[C@H]1c2cc(C#N)ccc2OC(C)(C)[C@@H]1O` [(-)-[3R,4S]-Chromanol 293B], in the test with ReNCell VM [1] (library: Tocriscreen), the neuronal differentiation score was inactive: 0. Moreover, in the test with ReNCell VM [2] (library: Tocriscreen), the “dopaminergic neuron differentiation score” value is inactive: 0.

With `c1cc2c(cc1C1CCCCC1)c1c3n2CCNC3CCC1` (centres undefined) [Tetrindole mesylate], in the test on ReNCell VM [1] (library: Tocriscreen), the neuronal differentiation score was inactive: 0. Further, the “dopaminergic neuron differentiation score” value with ReNCell VM [2] (library: Tocriscreen) is inactive: 0.

For the compound `Nc1nc(Nc2ccccc2)nc2c1ncn2[C@@H]1O[C@H](CO)[C@@H](O)[C@H]1O`, in the test with ReNCell VM [1] (library: Tocriscreen), the neuronal differentiation score is inactive: 0. Besides, the “dopaminergic neuron differentiation score” value with ReNCell VM [2] (library: Tocriscreen) was inactive: 0.
